Assay results from patent US8809358B2, “Use of IκB-kinase inhibitors in pain therapy” (Sanofi-Aventis Deutschland GmbH, priority 2002, dated 2014).
At least one structure is not confirmed: it was looked up by name or label, or the drawing left a doubt.

Tested on: Zymosan-induced paw inflammation
Assay: Zymosan-induced paw inflammation in the mouse: paw withdrawal time during thermal stimulation of the hind paw
Assay type: in vivo
Protocol: • Zymosan-induced paw inflammation in the mouse; • Parameter: paw withdrawal time during thermal stimulation of the hind paw. Experimental implementation: In short-term anesthesia using isoflurane, 25 μl of a suspension containing 50 mg of zymosan/ml were injected into the right hind paw of the experimental animal. The development of a hyperalgesia was then determined quantitatively as follows: Determining the Paw Withdrawal Time During Thermal Stimulation (Hargreave's Test; See Above). The experimental animal was placed in a transparent plastic chamber having a glass floor. As soon as the experimental animal was no longer moving, following the reconnaissance phase (about 5 min), an infrared light source was positioned directly below the hind paw to be stimulated and switched on. The lamp emitted focused infrared light of increasing intensity such that the skin temperature of the hind paw increased almost linearly. […] Shortly before the zymosan injection, and for from 7 to 14 days after the injection, the thermal pain threshold was determined once daily on the right hind paw and left hind paw. Subsequently, the integral of the area which was formed from the curves for the paw withdrawal times of the inflamed paw and the noninflamed paw (AUC, area between the curves, see tables 5 and 6) was determined as a measure of the hyperalgesia. […]

## Cc1ccc(-c2cc(C(F)(F)F)nn2-c2ccc(S(N)(=O)=O)cc2)cc1 [Celecoxib, reference compound]
mouse, 14-day study, high dosage
  effect on thermal hyperalgesia at the high dosage, compound 13 versus Celecoxib: equally strong effects
Thermal hyperalgesia AUC, 14 days, 25 mg/kg
  Statistical difference as compared with the vehicle: no
